Measurements published in the supplement of paper PMC9588766.
This list holds what a sample rich in lowest values left over.

These compounds were tested on PDC-DUC18828 (assay: cell viability of compound + 1 nM pemigatinib relative to pemigatinib-only (DMSO) wells (fraction); PDC-DUC18828 is a patient-derived cholangiocarcinoma cell line; higher = less growth inhibition). Conditions: first compound 1 µM; pemigatinib concentration 1 nM; 72 h.
Description: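 Selleck Bioactive library screen in the patient-derived FGFR2 fusion-positive ICC cell line PDC-DUC18828 (500 cells/well). Each compound was tested at 1 uM with 1 nM pemigatinib, in triplicate, for 72 h. Viability was read by CellTiter-Glo and normalised to plate DMSO controls. Value is the paper's averaged normalised viability.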
In the case of `Cc1ccc(C(=O)NCCCCCC(=O)Nc2ccccc2N)cc1` + CCN1C(=O)N(c2c(F)c(OC)cc(OC)c2F)Cc2cnc3[nH]c(CN4CCOCC4)cc3c21 [pemigatinib], the cell viability is reported as 1.02. Compound `Cc1ccccc1-n1c(Cn2nc(-c3cccc(O)c3)c3c(N)ncnc32)nc2cccc(C)c2c1=O` + CCN1C(=O)N(c2c(F)c(OC)cc(OC)c2F)Cc2cnc3[nH]c(CN4CCOCC4)cc3c21 [pemigatinib] has a cell viability of 0.96. Compound `CN1C2CCC1CC(OC(=O)C(O)c1ccccc1)C2` (centres undefined) [Homatropine Bromide] + CCN1C(=O)N(c2c(F)c(OC)cc(OC)c2F)Cc2cnc3[nH]c(CN4CCOCC4)cc3c21 [pemigatinib] has a cell viability of 0.878. With `Cc1nc2c(-c3cnc(N)nc3)nc(N3CCOCC3)nc2n1C(C)C` + CCN1C(=O)N(c2c(F)c(OC)cc(OC)c2F)Cc2cnc3[nH]c(CN4CCOCC4)cc3c21 [pemigatinib] the cell viability was 0.242.
